Measured values reported in publication PMC4741301.

Sequences of proteins named here, by UniProt entry; tags and fusion partners are left off. A change or cut given only in a name is not applied to a line headed by its entry.
UniProt Q9P2M4: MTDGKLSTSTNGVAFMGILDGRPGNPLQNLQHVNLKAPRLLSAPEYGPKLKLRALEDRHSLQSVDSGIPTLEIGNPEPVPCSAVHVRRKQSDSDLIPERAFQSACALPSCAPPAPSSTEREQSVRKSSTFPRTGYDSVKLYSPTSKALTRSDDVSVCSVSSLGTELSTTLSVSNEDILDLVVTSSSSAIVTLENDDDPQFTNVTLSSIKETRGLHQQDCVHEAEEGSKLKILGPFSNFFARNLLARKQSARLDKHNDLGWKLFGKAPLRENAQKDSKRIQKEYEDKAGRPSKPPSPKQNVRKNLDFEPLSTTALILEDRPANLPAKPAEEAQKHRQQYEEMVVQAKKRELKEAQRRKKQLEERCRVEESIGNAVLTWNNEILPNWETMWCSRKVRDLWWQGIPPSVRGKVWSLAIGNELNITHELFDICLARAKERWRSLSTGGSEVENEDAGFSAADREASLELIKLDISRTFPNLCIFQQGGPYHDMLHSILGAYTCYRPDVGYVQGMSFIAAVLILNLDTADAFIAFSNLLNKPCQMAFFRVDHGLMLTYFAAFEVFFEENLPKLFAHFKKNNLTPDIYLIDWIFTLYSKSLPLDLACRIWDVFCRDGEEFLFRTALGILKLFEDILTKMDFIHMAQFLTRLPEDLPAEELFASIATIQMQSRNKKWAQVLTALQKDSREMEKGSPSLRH
UniProt Q9Y296: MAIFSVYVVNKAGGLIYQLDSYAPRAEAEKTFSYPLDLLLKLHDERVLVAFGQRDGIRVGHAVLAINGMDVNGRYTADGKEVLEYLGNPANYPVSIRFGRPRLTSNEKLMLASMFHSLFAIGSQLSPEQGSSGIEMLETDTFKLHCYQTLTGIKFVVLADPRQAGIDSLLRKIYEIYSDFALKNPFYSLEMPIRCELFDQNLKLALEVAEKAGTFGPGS
UniProt Q9Y2L5: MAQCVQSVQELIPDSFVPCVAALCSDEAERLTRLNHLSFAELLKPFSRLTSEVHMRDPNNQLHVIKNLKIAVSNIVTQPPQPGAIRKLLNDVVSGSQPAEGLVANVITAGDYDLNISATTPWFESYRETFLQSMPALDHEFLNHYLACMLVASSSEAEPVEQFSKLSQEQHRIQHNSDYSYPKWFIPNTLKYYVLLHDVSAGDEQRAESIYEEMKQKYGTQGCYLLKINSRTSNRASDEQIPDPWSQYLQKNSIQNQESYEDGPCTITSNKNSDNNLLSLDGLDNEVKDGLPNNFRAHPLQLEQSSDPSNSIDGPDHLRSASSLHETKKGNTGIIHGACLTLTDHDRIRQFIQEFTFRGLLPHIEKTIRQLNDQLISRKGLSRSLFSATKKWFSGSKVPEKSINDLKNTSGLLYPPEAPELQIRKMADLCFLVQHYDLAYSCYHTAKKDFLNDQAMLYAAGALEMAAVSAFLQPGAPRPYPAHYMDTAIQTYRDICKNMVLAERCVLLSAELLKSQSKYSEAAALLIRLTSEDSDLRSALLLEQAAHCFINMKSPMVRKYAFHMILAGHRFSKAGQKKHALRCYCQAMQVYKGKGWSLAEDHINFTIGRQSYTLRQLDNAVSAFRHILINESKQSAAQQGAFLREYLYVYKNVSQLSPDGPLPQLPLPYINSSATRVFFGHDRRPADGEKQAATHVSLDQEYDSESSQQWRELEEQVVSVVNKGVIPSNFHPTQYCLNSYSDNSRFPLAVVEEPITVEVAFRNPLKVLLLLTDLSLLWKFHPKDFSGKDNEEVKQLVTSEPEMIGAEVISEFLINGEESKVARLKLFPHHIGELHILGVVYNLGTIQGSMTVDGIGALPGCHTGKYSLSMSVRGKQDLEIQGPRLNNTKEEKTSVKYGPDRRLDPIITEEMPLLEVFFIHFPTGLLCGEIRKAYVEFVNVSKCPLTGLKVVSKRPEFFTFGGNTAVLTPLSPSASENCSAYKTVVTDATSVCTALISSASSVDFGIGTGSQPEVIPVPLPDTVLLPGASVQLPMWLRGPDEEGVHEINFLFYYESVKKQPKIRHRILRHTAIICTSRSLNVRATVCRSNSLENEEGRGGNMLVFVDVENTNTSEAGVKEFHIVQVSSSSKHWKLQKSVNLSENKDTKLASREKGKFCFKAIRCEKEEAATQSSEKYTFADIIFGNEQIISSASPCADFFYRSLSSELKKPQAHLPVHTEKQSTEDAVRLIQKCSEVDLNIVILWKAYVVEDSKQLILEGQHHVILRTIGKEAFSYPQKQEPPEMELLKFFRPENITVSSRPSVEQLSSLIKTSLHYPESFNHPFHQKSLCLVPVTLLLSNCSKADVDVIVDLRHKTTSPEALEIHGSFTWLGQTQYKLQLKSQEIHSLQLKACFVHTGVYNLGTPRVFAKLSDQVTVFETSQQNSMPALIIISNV
UniProt Q8WVT3: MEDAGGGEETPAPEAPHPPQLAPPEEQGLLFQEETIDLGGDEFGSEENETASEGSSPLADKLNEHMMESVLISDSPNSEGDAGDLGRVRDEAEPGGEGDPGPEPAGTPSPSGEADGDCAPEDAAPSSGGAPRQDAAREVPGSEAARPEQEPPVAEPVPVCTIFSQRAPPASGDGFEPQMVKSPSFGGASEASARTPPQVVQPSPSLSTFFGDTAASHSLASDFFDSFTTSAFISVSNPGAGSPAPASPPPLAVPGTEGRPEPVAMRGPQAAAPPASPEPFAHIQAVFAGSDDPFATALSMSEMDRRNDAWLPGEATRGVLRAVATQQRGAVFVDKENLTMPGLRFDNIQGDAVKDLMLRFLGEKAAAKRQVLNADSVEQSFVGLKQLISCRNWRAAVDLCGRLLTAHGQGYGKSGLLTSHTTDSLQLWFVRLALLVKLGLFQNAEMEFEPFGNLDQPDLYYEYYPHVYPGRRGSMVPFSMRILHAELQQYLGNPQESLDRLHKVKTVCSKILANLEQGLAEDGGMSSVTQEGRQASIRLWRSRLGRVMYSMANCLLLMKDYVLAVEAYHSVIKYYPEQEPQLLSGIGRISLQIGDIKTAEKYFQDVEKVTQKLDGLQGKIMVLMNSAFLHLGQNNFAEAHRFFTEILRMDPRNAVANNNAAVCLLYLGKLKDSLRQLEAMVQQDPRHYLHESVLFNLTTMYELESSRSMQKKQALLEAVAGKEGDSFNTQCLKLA

Assays:
myc‐BioID‐TBC1D14 [1] = target: myc‐BioID‐TBC1D14 (UniProt Q9P2M4); test: proximity labelling; BioID: sample denatured with 1% SDS, 1‐h streptavidin resin pulldown at room temperature, eluted in 2× Laemmli sample buffer plus 3 mM biotin; immunoblot
myc‐BioID‐TBC1D14 [2] = target: myc‐BioID‐TBC1D14 (UniProt Q9P2M4); test: proximity labelling; BioID: HEK293A cells with myc‐BioID‐TBC1D14, 50 μM biotin overnight; half of the sample DENATURED with 1% SDS, streptavidin resin; mass spectrometry (iBAQ)
myc‐BioID‐TBC1D14 [3] = target: myc‐BioID‐TBC1D14 (UniProt Q9P2M4); test: proximity labelling; BioID: HEK293A cells with myc‐BioID or myc‐BioID‐TBC1D14, 50 μM biotin overnight, lysed in TNTE; NON-denatured half on streptavidin resin; mass spectrometry (iBAQ)

Question: Which binding (myc‐BioID‐TBC1D14 [1]) does the source give for TRAPPC4 (from UniProt Q9Y296 1-219) here?
Answer: no binding

Question: What does the source list for TRAPPC8 (from UniProt Q9Y2L5 1-1435)?
Answer: binding (myc‐BioID‐TBC1D14 [1]): binds; binding (myc‐BioID‐TBC1D14 [2]): binds; binding (myc‐BioID‐TBC1D14 [3]): binds

Question: How did the binding (myc‐BioID‐TBC1D14 [1]) turn out when “TRAPPC12/TTC15 (from UniProt Q8WVT3 1-735)” was run?
Answer: no binding

No constants are given. Whether binding was seen depends on the method and setting. Binding seen in cells or lysates may run through a third protein. Here binding means that the protein was enriched with, or labelled near, the bait; the list need not be complete. For some assays here: A no says only that the protein was not detected with the bait.
